Taken from: PubChem BioAssay AID504804 (Drosophila RNAi Screening Center, 2011)

- Aim: 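Fly genes whose loss lessens doxorubicin-driven cell death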 (primary screen)
- System: Drosophila Kc cells
- Reagents: long dsRNA against Drosophila genes, 0.5 µg dsRNA per well
- Duration: 96 h (48 h knock-down, then 48 h drug)
- Treatment: doxorubicin 5 µg/ml for 48 h, added 48 h after dsRNA
- Measurement: 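Viability measured as cellular ATP by luminescence after 48 h knock-down then 48 h doxorubicin at 5 µg/ml; unnormalised plate counts for each replicate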
- Direction: raw ATP luminescence: higher = more viable cells, protection from doxorubicin
- Hit rule: 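Active when both duplicate wells lie at least 2 SD above the plate mean and protection is confirmed by rescreening and independent dsRNAs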
The deposit covers about 19,000 reagents; below is an unselected part of those with a known target gene and a result. Over the whole deposit, 47 (0.25%) are marked active. 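Signals are raw, not normalised; exact z-scores behind calls not deposited; actives needed confirmation, so some wells reaching 2 SD are inactive.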 Reagents against one gene are numbered here. Names joined by + are all predicted targets of the reagent.

The first 3 records as a preview:
| Target gene | reagent no. | SD above plate mean | raw ATP luminescence, replicate 1 | raw ATP luminescence, replicate 2 | Outcome |
| --- | --- | --- | --- | --- | --- |
| PolG1 | 1 | – | 67020 | 92037 | inactive |
| CG34150 | 1 | – | 2.21e5 | 2.12e5 | inactive |
| SmB | 1 | – | 69023 | 55673 | inactive |

Results, repeating the preview:
| Target gene | reagent no. | SD above plate mean | raw ATP luminescence, replicate 1 | raw ATP luminescence, replicate 2 | Outcome |
| --- | --- | --- | --- | --- | --- |
| PolG1 | 1 | – | 67020 | 92037 | inactive |
| CG34150 | 1 | – | 2.21e5 | 2.12e5 | inactive |
| SmB | 1 | – | 69023 | 55673 | inactive |
| CG10581 | 1 | – | 62660 | 51083 | inactive |
| Rs1 | 1 | – | 55173 | 42447 | inactive |
| CG16710 | 1 | – | 67880 | 56420 | inactive |
| CG17294 | 1 | – | 1.38e5 | 96227 | inactive |
| CG34435 | 1 | – | 26370 | 43470 | inactive |
| CG14658 | 1 | – | 70067 | 66510 | inactive |
| CG13731 | 1 | – | 39733 | 49193 | inactive |
| gl | 1 | – | 52640 | 75890 | inactive |
| CG13375 | 1 | – | 54050 | 41670 | inactive |
| sowah | 1 | – | 1.58e5 | 95583 | inactive |
| sowah | 2 | – | 32120 | 35033 | inactive |
| CG13282 | 1 | – | 74603 | 75427 | inactive |
| CG5114 | 1 | – | 25610 | 24037 | inactive |
| prc | 1 | – | 91403 | 1.42e5 | inactive |
| CG7791 | 1 | – | 74140 | 65377 | inactive |
| CG18476 | 1 | – | 56627 | 28513 | inactive |
| crim | 1 | – | 43030 | 44327 | inactive |
| Grl43a | 1 | – | 29583 | 58267 | inactive |
| Cht12 | 1 | – | 81153 | 73093 | inactive |
| CG33259 | 1 | – | 56460 | 35660 | inactive |
| Orc5 | 1 | – | 63053 | 66010 | inactive |
| mAChR-C | 1 | – | 38840 | 41760 | inactive |
| CG12644 (retired record) | 1 | – | 4.35e5 | 3.35e5 | inactive |
| CG32718 | 1 | – | 2.09e5 | 2.33e5 | inactive |
| ppk28 | 1 | – | 3.76e5 | 3.21e5 | inactive |
| sds22 | 1 | – | 65530 | 66610 | inactive |
| Eaf6 | 1 | – | 67670 | 83697 | inactive |
| CG15185 | 1 | – | 63927 | 59640 | inactive |
| CG2767 | 1 | – | 68040 | 28203 | inactive |
| Syx17 | 1 | – | 34620 | 43343 | inactive |
| nsl1 | 1 | – | 43537 | 40963 | inactive |
| Atac1 | 1 | – | 22493 | 26350 | inactive |
| l(2)gl | 1 | – | 1.85e5 | 2.28e5 | inactive |
| Edc3 | 1 | at least 2 SD above plate mean | 43603 | 42937 | active |
| Fkbp59 | 1 | – | 30527 | 69340 | inactive |
| Hexim | 1 | – | 92473 | 36507 | inactive |
| CG34232 | 1 | – | 60613 | 69070 | inactive |
| CG15545 | 1 | – | 52630 | 32960 | inactive |
| CG14259 | 1 | – | 63360 | 42560 | inactive |
| CG34028 | 1 | – | 2.02e5 | 1.49e5 | inactive |
| CG3045 | 1 | – | 75880 | 57587 | inactive |
| COX5BL | 1 | – | 24607 | 33533 | inactive |
| sug | 1 | – | 59817 | 47817 | inactive |
| CG1737 | 1 | – | 2.11e5 | 2.31e5 | inactive |
| Sdc | 1 | – | 63480 | 63610 | inactive |
| CG13305 | 1 | – | 60293 | 69803 | inactive |
| Dab | 1 | – | 99293 | 50390 | inactive |
| Or83c | 1 | – | 80430 | 79030 | inactive |
| CG30394 | 1 | – | 54787 | 64137 | inactive |
| CG30394 | 2 | – | 48700 | 46247 | inactive |
| CG32119 | 1 | – | 1.22e5 | 1.08e5 | inactive |
| pHCl-1 | 1 | – | 84433 | 76403 | inactive |
| pHCl-1 | 2 | – | 49557 | 36733 | inactive |
| pHCl-1 | 3 | – | 53893 | 43503 | inactive |
| aub | 1 | – | 80517 | 61163 | inactive |
| Tango6 | 1 | – | 98300 | 79553 | inactive |
| CG5989 | 1 | – | 38710 | 29933 | inactive |
| Galphao | 1 | – | 47987 | 45943 | inactive |
| CG14207 | 1 | – | 3.26e5 | 2.80e5 | inactive |
| Mtap | 1 | – | 63767 | 78687 | inactive |
| Shab | 1 | – | 1.54e5 | 1.29e5 | inactive |
| Shab | 2 | – | 98567 | 61490 | inactive |
| dbr | 1 | – | 1.29e5 | 1.28e5 | inactive |
| Atg10 + CG12822 | 1 | – | 20877 | 1.01e5 | inactive |
| CG43902 | 1 | – | 2.91e5 | 2.99e5 | inactive |
| Ccp84Ab | 1 | – | 55057 | 54733 | inactive |
| CG7376 | 1 | – | 35690 | 39973 | inactive |
| slf | 1 | – | 34360 | 38780 | inactive |
| CG18324 | 1 | – | 95707 | 63110 | inactive |
| veli | 1 | – | 57160 | 54680 | inactive |
| TyrRS | 1 | – | 22217 | 27077 | inactive |
| CG13311 | 1 | – | 62157 | 75727 | inactive |
| Lsd-1 | 1 | – | 35267 | 34987 | inactive |
| park | 1 | – | 18790 | 20020 | inactive |
| Ubc7 | 1 | – | 3.45e5 | 2.91e5 | inactive |
| CG8839 | 1 | – | 45517 | 39490 | inactive |
| ninaE | 1 | – | 53790 | 72950 | inactive |
| CG6912 | 1 | – | 70540 | 88790 | inactive |
| in | 1 | – | 61283 | 58813 | inactive |
| CG7110 | 1 | – | 83043 | 80067 | inactive |
| CG7110 | 2 | – | 69537 | 68273 | inactive |
